Hit rate of the full screen: of about 310,000 compounds, about 17,000 (5.5%) were called active. Inconclusive results, whose numbers are uncertain, are shown with a selection of clear calls. The call rests on the fitted dose curve; in most records, active means well fitted inhibition curve with a large enough effect; inconclusive means small, poorly fitted or top-dose-only effect, or effect the other way; inactive means no such curve, though single readings can be large or run the other way. Where the call is inconclusive, the potency comes from a doubtful curve fit.
What follows are compounds tested against Nuclear receptor ROR-gamma (Mus musculus) (UniProt P51450) (assay: qHTS for inhibitors of ROR gamma transcriptional activity). Details: Drosophila S2 Gal4-RORgamma UAS-luciferase reporter, 20 h; series mostly up to 53.6 µM.
How it was run: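 Using a luciferase readout, inhibitors were identified by reduced reporter activity in Drosophila cells coexpressing a copper-inducible Gal4–ROR gamma fusion and UAS-driven Photinus luciferase, incubated 20 hr after 700 uM copper sulfate.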
Further: nearly all actives have a fitted effect of over 60% in size.
Potency means the concentration at half of the fitted maximal effect.

The chains behind the UniProt entries cited, without tags or fusion partners. Where a name states a change or a piece, a line headed by the entry shows the natural chain unless it says otherwise.
UniProt P51450: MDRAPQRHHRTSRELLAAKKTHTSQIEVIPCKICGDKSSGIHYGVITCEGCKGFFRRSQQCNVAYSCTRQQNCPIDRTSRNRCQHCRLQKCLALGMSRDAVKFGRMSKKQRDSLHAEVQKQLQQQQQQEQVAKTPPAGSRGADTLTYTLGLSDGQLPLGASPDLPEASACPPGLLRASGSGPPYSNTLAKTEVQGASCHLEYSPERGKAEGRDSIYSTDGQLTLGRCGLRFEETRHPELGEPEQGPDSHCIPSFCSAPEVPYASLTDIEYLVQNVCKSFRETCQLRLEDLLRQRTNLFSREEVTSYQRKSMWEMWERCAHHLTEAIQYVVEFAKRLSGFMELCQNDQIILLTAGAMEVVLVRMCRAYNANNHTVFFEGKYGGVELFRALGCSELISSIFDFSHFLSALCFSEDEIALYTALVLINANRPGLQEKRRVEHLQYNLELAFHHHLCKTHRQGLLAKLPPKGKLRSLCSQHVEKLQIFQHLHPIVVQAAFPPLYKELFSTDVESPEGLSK

Row | SMILES | Potency
1 | COc1ccccc1NC(CC(=O)c1ccccc1)C(=O)OCC(=O)c1ccc(Br)cc1 (configuration not stated) | inactive
2 | COC(=O)c1sc(N2C(=O)C(O)=C(C(=O)c3ccc(C)o3)C2c2ccco2)nc1C (configuration not stated) | inactive
3 | CC(=O)N1[C@H](C)C=C[C@]1(Cc1ccccc1)C(=O)NCc1ccc(C)o1 | inconclusive: 35.5 µM [inhibitor, single point]
4 | CCCC(C)C(=O)Nc1nc(C)c(-c2csc(Nc3ccccc3OC)n2)s1 (configuration not stated) | inactive
5 | COc1ccccc1/C=N/NC(=O)CCn1cnc2ccccc21 | inconclusive: 12.6 µM [inhibitor, single point]
6 | CCSc1nnc(NC(=O)[C@H](C)NC(=O)c2ccccc2Cl)s1 | inconclusive: 22.4 µM [activator, single point]
7 | COc1ccccc1CC(NC(C)=O)C(=O)N1CCN(C(=O)c2cccs2)CC1 (configuration not stated) | inconclusive: 35.5 µM [activator, single point]
8 | COCCN1CCN(C(=O)C2CCC(=O)N(CCc3cccc(F)c3)C2)CC1 (configuration not stated) | inactive
9 | CC(C)Cc1cc(C(=O)Nc2cccnc2)no1 | inconclusive: 2.24 µM [activator, partial curve]
10 | Cc1ccc(F)cc1NCC(=O)Nc1ccc(Br)cc1 | inconclusive: 12.6 µM [activator, single point]
11 | COc1cc(NS(=O)(=O)c2ccc(Cl)cc2)c(C(=O)O)cc1OC | inactive
12 | Cc1ccc(-n2nc3cc(Cl)c(NC(=O)c4ccco4)cc3n2)cc1 | inconclusive: 17.8 µM [inhibitor, single point]
13 | CCOc1c(/C=C(\C#N)C(N)=O)c2ccccc2n1CC | inactive
14 | COC(=O)c1ccc(CSc2nnc(-c3ccncc3)o2)o1 | inconclusive: 0.0794 µM [inhibitor, single point]
15 | CC1CCN(c2nc3ccccc3nc2C(C#N)C(=O)OC2CCCCC2)CC1 (configuration not stated) | inconclusive: 17.8 µM [inhibitor, single point]
16 | COc1ccccc1N1CCN(S(=O)(=O)c2c(C)[nH]c(=O)[nH]c2=O)CC1 | inactive
17 | O=C1C(Cl)=C(NC(=O)c2ccccc2)C(=O)C(Cl)=C1NC(=O)c1ccccc1 | active: 7.08 µM
18 | COCc1cc(C)nc2sc(C(=O)NN)c(-n3cccc3)c12 | inconclusive: 35.5 µM [inhibitor, single point]
19 | COCCN(CCOC)S(=O)(=O)c1ccc(C(=O)Nc2nnc(COC)o2)cc1 | inconclusive: 22.4 µM [inhibitor, single point]
20 | O=C(NC(=S)Nc1cccnc1Cl)c1ccco1 | inconclusive: 22.4 µM [inhibitor, single point]
21 | C#CCOc1c(Cl)cc(/C=C2/C(=O)ON=C2C)cc1OCC | inactive
22 | O=C(CNc1cccc(S(=O)(=O)N2CCCCC2)c1)Nc1ccccc1F | inconclusive: 17.8 µM [activator, single point]
23 | CCOC(=O)CCC(=O)Nc1ccc(S(=O)(=O)N2CCC(C)CC2)cc1 | inconclusive: 35.5 µM [activator, single point]
24 | NC(CSSCC(N)C(=O)O)C(=O)O (configuration not stated) | inconclusive: 0.708 µM [activator, partial curve]

Filtered by structure: the compounds so far containing a cyano group
Row | SMILES | Potency
13 | CCOc1c(/C=C(\C#N)C(N)=O)c2ccccc2n1CC | inactive
15 | CC1CCN(c2nc3ccccc3nc2C(C#N)C(=O)OC2CCCCC2)CC1 (configuration not stated) | inconclusive: 17.8 µM [inhibitor, single point]

The listing continues.

Row | SMILES | Potency
25 | Cc1csc(SCC(=O)c2cc(C)n(Cc3cccs3)c2C)n1 | active: 6.31 µM
26 | CC(C)OCCCNC(=O)NC(=O)c1ccc(Cl)cc1 | inconclusive: 8.91 µM [activator, partial curve]
27 | O=C(Nc1ccc(Br)cc1)c1cccc(S(=O)(=O)Nc2ccccn2)c1 | inconclusive: 25.1 µM [activator, single point]
28 | O=C(CCC(=O)N(CC(=O)NC1CCCC1)c1ccc(F)cc1)Nc1nccs1 | inactive
29 | Cn1c(=O)c(-c2ccc(F)cc2)nc2cncnc21 | inactive
30 | O=C(CCC(=O)Nc1nnc(C2CCCCC2)s1)Nc1ccccc1 | inactive
31 | CCSCCc1nnc(NC(=O)Nc2cccc(C(F)(F)F)c2)s1 | inconclusive: 35.5 µM [inhibitor, single point]
32 | c1ccc(C2=NNC(c3ccccn3)=NN2)nc1 | inconclusive: 35.5 µM [inhibitor, single point]
33 | Cc1ccc(C(=O)Nc2ccc(SC(F)F)cc2)s1 | inactive
34 | CCn1c(C)nc2cc(C(=O)NNC(=S)Nc3ccccc3OC)ccc21 | active: 12.6 µM
35 | O=C(Nc1cc(-c2ccccc2)[nH]n1)c1ccccc1 | inactive
36 | O=C(CCn1nc(-c2ccc(Cl)cc2)ccc1=O)N1CCN(c2ccccc2)CC1 | inactive
37 | COc1cc(/C=N/NC(=O)c2sc(N)c(C#N)c2C)cc(Br)c1O | inconclusive: 11.2 µM [activator, partial curve, poor fit]
38 | O=C(O)c1cccc(S(=O)(=O)N2CCCC(c3nc4c(nnn4Cc4ccccc4Cl)c(=O)[nH]3)C2)c1 (configuration not stated) | inconclusive: 31.6 µM [activator, single point]
39 | COc1ccc(OC)c2sc(NNC(=O)C3COc4ccccc4O3)nc12 (configuration not stated) | inconclusive: 5.62 µM [inhibitor, partial curve]
40 | O=C(Nc1ccc2c(c1)CCCN2C(=O)c1ccccc1)c1ccccc1 | inconclusive: 8.91 µM [activator, partial curve, poor fit]
41 | COc1ccccc1-c1nc(C#N)c(N2CCN(c3ccccc3)CC2)o1 | inconclusive: 35.5 µM [inhibitor, single point]
42 | Cc1ccc(/C=N/Nc2cc(C)nc(NCc3ccccc3)n2)cc1 | active: 20 µM
43 | COc1ccc(S(=O)(=O)NCc2ccccn2)c(Cl)c1Cl | inconclusive: 0.0501 µM [inhibitor, full curve, poor fit]
44 | c1cncc(CNc2ncnc3sccc23)c1 | inconclusive: 35.5 µM [activator, single point]
45 | COc1ccccc1-c1cc(C(=O)N/N=C/c2cccs2)c2ccccc2n1 | active: 4.47 µM
46 | CC(C)(C)n1nnnc1C(c1ccc(Cl)cc1)N(Cc1cccnc1)Cc1ccco1 (configuration not stated) | inconclusive: 6.31 µM [activator, single point]
47 | CC1(c2ccccc2Br)NC(=O)N(CC(=O)Nc2ccc(S(N)(=O)=O)cc2)C1=O (configuration not stated) | inconclusive: 0.0398 µM [inhibitor, full curve, poor fit]

Reference: PubChem BioAssay AID2551 (National Center for Advancing Translational Sciences (NCATS), 2010)
